Values of other authors in patent US7563785B2, “Quetiapine analogs and methods of use thereof” (Hypnion, Inc., priority 2004, dated 2009).
pKi: −log10 of the molar value. Some of these results come from one statement about several compounds together.

Chains of the proteins cited; added tags and fusions are not shown.
UniProt P30546, whole entry: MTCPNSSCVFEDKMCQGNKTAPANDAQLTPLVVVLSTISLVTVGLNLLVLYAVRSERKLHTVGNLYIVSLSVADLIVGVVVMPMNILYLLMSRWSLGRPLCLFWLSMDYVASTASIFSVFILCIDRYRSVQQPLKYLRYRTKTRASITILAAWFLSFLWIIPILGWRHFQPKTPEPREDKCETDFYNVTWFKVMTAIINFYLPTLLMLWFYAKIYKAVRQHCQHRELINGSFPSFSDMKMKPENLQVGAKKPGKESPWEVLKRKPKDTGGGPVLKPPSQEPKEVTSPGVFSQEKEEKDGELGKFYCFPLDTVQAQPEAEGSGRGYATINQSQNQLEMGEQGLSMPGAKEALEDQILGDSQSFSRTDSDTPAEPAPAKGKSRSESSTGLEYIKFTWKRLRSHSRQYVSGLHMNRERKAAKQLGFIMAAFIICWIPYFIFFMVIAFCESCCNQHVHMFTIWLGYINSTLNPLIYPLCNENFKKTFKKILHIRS

Molecular target: T1, H1 (bov) (Bos taurus, UniProt P30546)
T1 construct: the receptors were obtained from bovine cerebellar membrane tissue; from tissue; host or cells: bovine cerebellar membranes
Conditions: reference compounds; read-out: Ki of reference compounds in H1 binding assay

CN(C)CCCSC(=N)N [dimaprit]
pKi: < 5.00
